# From PubChem BioAssay AID1259354 (Paczesny and Yang Labs, IUPUI and University of Michigan, 2018)
# The chains behind the UniProt entries cited, without tags or fusion partners. Where a name states a change or a piece, a line headed by the entry shows the natural chain unless it says otherwise.
# UniProt Q01638: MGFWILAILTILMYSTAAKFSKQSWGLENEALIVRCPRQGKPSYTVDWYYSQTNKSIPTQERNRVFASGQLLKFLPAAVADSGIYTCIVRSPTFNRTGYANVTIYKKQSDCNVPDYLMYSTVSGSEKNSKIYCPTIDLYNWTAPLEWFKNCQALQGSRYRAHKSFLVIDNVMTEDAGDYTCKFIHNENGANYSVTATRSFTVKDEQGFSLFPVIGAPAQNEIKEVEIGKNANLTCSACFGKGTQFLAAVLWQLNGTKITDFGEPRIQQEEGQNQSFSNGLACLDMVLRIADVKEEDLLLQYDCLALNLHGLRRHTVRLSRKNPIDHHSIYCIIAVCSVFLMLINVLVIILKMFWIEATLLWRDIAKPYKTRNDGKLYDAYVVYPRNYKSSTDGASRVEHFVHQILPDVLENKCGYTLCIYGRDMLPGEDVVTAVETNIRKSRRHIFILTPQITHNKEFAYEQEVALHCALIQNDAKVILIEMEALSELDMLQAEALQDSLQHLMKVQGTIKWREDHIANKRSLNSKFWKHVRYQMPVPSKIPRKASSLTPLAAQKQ
# In all, about 78,000 compounds went through this assay and about 1,800 (2.3%) were called active. Inconclusive means that the source gave no clear call. Such entries were picked first, then a sample of the others. Rule as the data show it: active = inhibition above about 30%; inconclusive = mostly about 10% to 28%; inactive = weaker than that.
# Biological target: Interleukin-1 receptor-like 1 (Homo sapiens) (UniProt Q01638)
# Assay: blocks human ST2 binding to IL-33, primary screen, biochemical, AlphaLISA (AID 1259354)
# Conditions: AlphaLISA ST2-Fc/biotin-IL-33 interaction, 1 h; at 17 µM, stronger effect = higher value
row,Structure (SMILES),inhibition
1,Cc1nc2n(CCN3CCCCC3)c3ccccc3n2c1C(=O)c1cccs1,inactive
2,Cc1ccc(S(=O)(=O)N2CCN(Cc3ccccc3)CC2)cc1[N+](=O)[O-],inconclusive: 24%
3,C=Cc1cccc(CN2CCC(CNC(=O)c3ccc(=O)[nH]n3)C2)c1 (stereo not drawn),inconclusive: 10%
4,Cc1[nH]n(-c2ccccc2)c(=O)c1C(c1ccco1)c1c(C)[nH]n(-c2ccccc2)c1=O,active: 51%
5,CCC1(CC)OC(c2ccc(NC(C)=O)cc2)Nc2ccccc21 (stereo not drawn),inconclusive: 25%
6,C=C(CCO)C(=O)OCC1OCC(OC(=O)C(=C)CCO[C@@H]2O[C@H](COC(=O)C(=C)CCO[C@@H]3O[C@H](COC(=O)C(=C)CCO)[C@@H](O)[C@H](O)[C@H]3O)[C@@H](O)[C@H](O)[C@H]2O)C(O)C1O (stereo partly drawn),inconclusive: 20%
7,CCC1=C(c2ccc(OC)cc2)S(=O)(=O)N(CC(=O)NCc2cccc(Cl)c2)C1=O,inactive
8,CCC(C)c1ccc(NC(=O)c2ccc([N+](=O)[O-])o2)cc1 (stereo not drawn),inconclusive: 18%
9,CSc1ncc(-c2nccn2CC[C@@H]2C[C@@H]3C=C[C@H]2C3)cn1,inconclusive: 14%
10,CN(C)S(=O)(=O)c1ccccc1,inactive
11,COc1cc(CN2CCN(Cc3cc(OC)c(OC)c(OC)c3)CC2)cc(OC)c1,inconclusive: 13%
12,CCc1ccc(NS(=O)(=O)c2ccc(OC)cc2)cc1,inactive
13,O=C(NCc1ccc(Cl)cc1)C1(S(=O)(=O)c2ccc(Cl)cc2)CC1,inactive
14,Cc1ccc(NC(=O)CSc2nc3c(c(=O)n2-c2ccccc2)SCC3)c(C)c1,inconclusive: 10%
15,CCc1nc(C)c(C(=O)N(Cc2ccccn2)CC2CCCO2)o1 (stereo not drawn),inactive
16,CN(C)CCNC(=O)c1ccc2c(c1)ncn2C1CCCC1,inconclusive: 18%
17,CCc1cccc(C)c1NS(=O)(=O)c1ccc2c(c1)c(=O)n(C)c(=O)n2C,inconclusive: 11%
18,OC1(c2ccccc2)CCN(Cc2cnc3c(-c4ccccc4)cnn3c2)CC1,active: 33%
19,Cc1cc(NC(=O)CSc2nc3ccccc3o2)no1,inconclusive: 18%
20,CCC(NC(=O)CCn1c(C)cc2ccccc21)c1cccnc1 (stereo not drawn),inconclusive: 13%

row,Structure (SMILES),inhibition
1,COc1ccc(-c2cc(F)c(OC)c(F)c2)cn1,inconclusive: 13%
2,C=CCc1ccccc1OCC(O)Cn1c2ccccc2c2ccccc21 (stereo not drawn),inconclusive: 10%
3,CC(=O)c1cccc(N2C(=O)C3CC=CCC3C2=O)c1 (stereo not drawn),inconclusive: 13%
4,COc1ccc(Nc2nc(Cl)nc(NCc3ccco3)n2)cc1,inactive
5,COC(=O)c1cc(CNC(=O)Cc2c(F)cccc2Cl)cc(NC(=O)c2ccco2)c1,inconclusive: 14%
6,CCOC(=O)COc1cccc2c1ccc1c3c(c(=O)oc12)CCCC3,inactive
7,CSc1ncccc1C(=O)N1CCC(CCC(=O)NCc2ccc(F)cc2)CC1,inconclusive: 11%
8,CCN(CC)C(=O)CC[C@@H]1CNC(=O)[C@@H]2C[C@H](NC(=S)Nc3ccccc3)CN12,active: 36%
9,O=C(COc1ccccc1Cl)N1CCN(c2ccc(F)cc2)CC1,inconclusive: 11%
10,CCOC(=O)c1c(C)oc2ccc(OCc3ccc(Cl)cc3)cc12,inactive
11,COc1ccc(/C=C2/N=C(c3ccc(C)cc3)OC2=O)cc1[N+](=O)[O-],inconclusive: 10%
12,CC(CCc1ccccc1)Nc1cc(N2CCN(S(C)(=O)=O)CC2)ccc1[N+](=O)[O-] (stereo not drawn),inconclusive: 20%
13,COc1cc2c(C(=O)N3CCN(c4ccc(F)cc4)CC3)cn(C)c(=O)c2cc1OC,inconclusive: 23%
14,CC(C)(C)c1ccccc1OCC(=O)Nc1ncc(S(=O)(=O)c2ccc([N+](=O)[O-])cc2)s1,inconclusive: 23%
15,COC(=O)c1ccccc1C(=O)N1CCC(C(Cc2ccccc2)N(C)C(=O)c2ccoc2C)CC1 (stereo not drawn),inconclusive: 11%
16,CCCCNC(=O)CSC1=Nc2ccccc2C2=NC(C(C)C)C(=O)N12 (stereo not drawn),inconclusive: 13%
17,O=C(Nc1ccn(C2CC(OC(=O)c3ccccc3)C(CO)O2)c(=O)n1)c1ccccc1 (stereo not drawn),inconclusive: 11%
18,c1ccc(-n2nnnc2SCc2cn3cccnc3n2)cc1,inconclusive: 12%
19,O=C(O)c1ccc(CN2CC[C@H](c3nnc(-c4ccco4)o3)C2)cc1,inactive
20,O=C(CC[C@@H]1CNC(=O)[C@@H]2C[C@H](NC(=S)Nc3ccc(Cl)cc3)CN12)NC1CC1,inactive

row,Structure (SMILES),inhibition
1,NC(=O)NC(=O)Nc1ccc(Cl)cc1,inconclusive: 10%
2,CCc1cnc(C)nc1-c1cc(NCc2ccncc2)nc2[nH]ccc12,inconclusive: 14%
3,O=S(=O)(c1ccc2oc3ccc(S(=O)(=O)N4CCCC4)cc3c2c1)N1CCCC1,inconclusive: 24%
4,CSc1nccc(N2CCCC(CCc3ccccc3)(C(=O)O)C2)n1 (stereo not drawn),inactive
5,CCOC(=O)C1C(=O)C=C(c2cccs2)CC1c1cccc(OC)c1 (stereo not drawn),inconclusive: 11%
6,C/C(=C\C(=O)c1ccc(Cl)cc1)Nc1ccccc1O,active: 30%
7,Cc1cccc(N(CC(=O)NCc2n[nH]c3c2CCC3)S(C)(=O)=O)c1,inactive
8,COCCn1c(CNC(=O)CCc2ccc(OC)cc2)nc2cccnc21,inconclusive: 19%
9,O=C(C1CC1)N1CCc2cc(S(=O)(=O)Nc3cccc(F)c3)ccc21,inconclusive: 13%
10,COc1ccccc1/C=C/C1=NC(=C\c2ccc(C(C)C)cc2)/C(=O)O1,active: 45%
11,O=C1C=C(Nc2cccc(C(F)(F)F)c2)C(=O)c2ccccc21,active: 31%
12,CN(C)c1ccc(/C=C2\SC(N3CCN(CCO)CC3)=NC2=O)cc1,inactive
13,COC(=O)c1sc2ccccc2c1NC(=O)c1ccc2c(c1)OCCO2,inconclusive: 13%
14,CCN(Cc1ccccc1)Cc1ccc(N(C)C)cc1,active: 36%
15,O=C1CCCC2=C1C(c1ccccc1)Nc1ccccc1N2 (stereo not drawn),inconclusive: 11%
16,CC1=C(C(=O)Nc2ccc(C)cn2)C(c2ccc(Cl)cc2)C2=C(CC(C)(C)CC2=O)N1 (stereo not drawn),inconclusive: 11%
17,CCc1cccc(-n2c(-c3ccco3)nc3c(cnn3-c3ccc(F)cc3)c2=O)c1,inactive
18,Cc1csc(NC(=O)c2cnc3scc(C)n3c2=O)n1,inconclusive: 10%

# Shown tab-delimited: part of the list above.
row	Structure (SMILES)	inhibition
8	COCCn1c(CNC(=O)CCc2ccc(OC)cc2)nc2cccnc21	inconclusive: 19%
9	O=C(C1CC1)N1CCc2cc(S(=O)(=O)Nc3cccc(F)c3)ccc21	inconclusive: 13%
